From patent US20130034730A1, “REMOVABLE WATER-DISPERSIBLE ACRYLIC PRESSURE-SENSITIVE ADHESIVE COMPOSITION AND PRESSURE-SENSITIVE ADHESIVE SHEET” (NITTO DENKO CORPORATION, priority 2010, published 2013)
Some entries share one result that the patent states for a list of compounds.

Assay: Solubility of crosslinking agent in water
Format: physicochemical
Conditions: water at 25° C.

C1CC(CN(CC2CO2)CC2CO2)CC(CN(CC2CO2)CC2CO2)C1 (centres unmarked) [TETRAD-C, 1,3-bis(N,N-diglycidylaminomethyl)cyclohexane]
Solubility in water: ≤ 2 parts by weight per 100 parts

c1cc(CN(CC2CO2)CC2CO2)cc(CN(CC2CO2)CC2CO2)c1 (centres unmarked) [TETRAD-X, 1,3-bis(N,N-diglycidylaminomethyl)benzene]
Solubility in water: ≤ 2 parts by weight per 100 parts
